Test system: HepG2 cells
Assay: in vitro cytotoxicity against HepG2 cells by WST-1 assay
Format: cell-based, human
Conditions: HepG2, 48 hours of treatment, DOX equivalent concentration
Experimental: Dox-CPP, and DOX-FPH were prepared by the method of Example 1. WST-1 assay is water-soluble tetrazolium salt assay that provides a mechanism to measure cell viability and cytotoxicity in cells. An increase in the number of viable cells leads to an increase in the activity of mitrochondrial dehydrogenases which in turn results in an increase in the amount of formazan dye produced. The formazan dye produced from WST-1 by viable cells is quantified by colorimetric measurement of the absorbance pf the dye at OD-44-nm. HepG2 cells were seeded on 96 well plates at a density of 5×10^3 per well. After 24 hours of incubation, DOX-CPP, DOX-FPH, Doxosome, and Free-DOX were mixed into fresh 0.5% FBS DMEM (ATCC-formulated Eagle's Minimum Essential Medium, catalog No. 30-2003) culture medium with equivalent DOX concentrations ranging from 0, 0.25, 2.5, 5, 10, and 20 μM. All DOX solutions were then added to the 96 well plates. Unloaded CPP and unloaded FPH were used as controls. After treatment for 48 hours, the cultured medium was removed and fresh 0.5% FBS DMEM medium containing WST-1 dye (90 μl medium plus 10 μl WST-1 reagent) was added to each well and incubated again for 2 hours at 37° C. The absorbance was measured at 440 nm using microplate reader and cell viability was expressed as a percentage of the untreated cells. All treatment groups had two replicates.

COc1cccc2c1C(=O)c1c(O)c3c(c(O)c1C2=O)C[C@@](O)(C(=O)CO)C[C@@H]3O[C@H]1C[C@H](N)[C@H](O)[C@H](C)O1 [Free-DOX, doxorubicin]
IC50: 4.3 µM

— patent US20250000908A1, “METHODS FOR PREPARING AND ADMINISTERING CRYOPRESERVED PLATELETS AND PLATELET DERIVATIVES LOADED WITH ANTI-CANCER DRUGS” (Cellphire, Inc., priority 2023, published 2025)
